From PubChem BioAssay AID1347075 (National Center for Advancing Translational Sciences (NCATS), 2019)
About 5,500 (1.4%) of roughly 400,000 compounds were called active. Inconclusive means that the source gave no clear call. Such entries were picked first, then a sample of the others. Calls come from the whole dose curve; as a rule, active = well fitted cell-killing curve with a large enough effect; inconclusive = small, poorly fitted or top-dose-only effect, or effect the other way; inactive = flat fitted curve, though single readings scatter. Potencies of inconclusive entries are doubtful fits and often do not repeat.

assay: qHTS assay for MDR1-selective chemotherapeutics: Primary screen using the parental adenocarcinoma cell KB-3-1; settings: KB-3-1 viability, CellTiter-Glo ATP luminescence, 72 h; activity change, negative = cytotoxic: at 46.1 µM (top of the series); note: nearly all actives have a fitted effect of over 60% in size
Procedure, shortened: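 Luminescent ATP read-out (CellTiter-Glo) measures survival of drug-naive KB-3-1 cells after 72 h compound exposure at 37 °C. Titration series was screened from lowest to highest concentration, with DMSO vehicle plates as background controls.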
% is set by controls: 0 for no effect and ±100 for the full control effect; potency is the fitted concentration of half-maximal effect.

| SMILES | Potency | activity change, negative = cytotoxic |
| --- | --- | --- |
| O=S1(=O)CCOC[C@H](CC2CCCCC2)N1Cc1cccc(C(F)(F)F)c1 | inconclusive: 20.6 µM [cytotoxic, single point] | – |
| Cc1nc2ccc(NC(=O)c3ccc(Br)o3)cc2s1 | inconclusive: 29.1 µM [rising, single point] | – |
| CCc1ccc(NC(=O)N2CCCCCC2)cc1 | inconclusive: 16.4 µM [rising, partial curve] | – |
| CCCOc1ccc(F)cc1-c1cc(C(=O)Nc2ccc(C(C)C)cc2)[nH]n1 | inconclusive: 25.9 µM [cytotoxic, single point] | – |
| COc1ccc(-n2nc(C(=O)c3cccs3)cc(-c3nc4ccccc4[nH]3)c2=N)cc1 | inconclusive: 20.6 µM [rising, single point] | – |
| CCOc1ccc(-c2nonc2NC(=O)c2oc3cc(Br)ccc3c2C)cc1 | active: 3.66 µM | – |
| Cc1cc(C(=O)CSc2nnc(-c3cccc(F)c3)n2N)c(C)n1Cc1ccc2c(c1)OCO2 | inconclusive: 29.1 µM [cytotoxic, single point] | – |
| Cc1nc(CS(=O)c2ccc(Cl)cc2)cc(NCc2ccc(Cl)cc2Cl)n1 (stereo not drawn) | inconclusive: 16.4 µM [cytotoxic, partial curve] | – |
| CC(=O)N(C)c1ccc(NC(=O)C(c2ccccc2)c2ccccc2)cc1 | inconclusive: 3.66 µM [cytotoxic, partial curve, poor fit] | – |
| CC1=C(C(=O)N(C(C)C)C(C)C)CC(CC(=O)NCCN2CCOCC2)C(=O)N1Cc1ccc(C(C)(C)C)cc1 (stereo not drawn) | inactive | – |
| COc1ccc2[nH]c(C)c(CCNC(=S)Nc3ccccc3OC)c2c1 | inactive | – |
| CCOc1ccc2nc(NCCCNS(=O)(=O)c3ccc(F)cc3)c(C#N)cc2c1 | active: 18.4 µM | – |
| O=C(NCC1CCCCC1)C1(CC2CC(c3ccc(Cl)cc3)=NO2)CCNCC1 (stereo not drawn) | inconclusive: 29.1 µM [cytotoxic, single point] | – |
| CCOC(=O)C1=CC[C@@H](c2cccc(Br)c2)N(S(=O)(=O)c2ccc(F)cc2)[C@H]1c1cccc(Cl)c1 | inconclusive: 18.4 µM [cytotoxic, single point] | – |
| CCCCOc1ccccc1NC(=O)Cn1c(-c2nonc2N)nc2ccccc21 | active: 4.61 µM | – |
| O=C(COc1ccc2ccccc2c1)NNC(=O)c1cccs1 | inconclusive: 29.1 µM [rising, single point] | – |
| COc1ccc(Cn2cc(CN3CCS(=O)(=O)N(Cc4ccc(-c5cccc(Cl)c5)cc4)C(C)C3=O)nn2)cc1 (stereo not drawn) | inconclusive: 29.1 µM [cytotoxic, single point] | – |
| CN(C)c1c([N+](=O)[O-])cc(N2C(=O)C=CC2=O)cc1[N+](=O)[O-] | inconclusive: 20.6 µM [cytotoxic, single point] | – |
| COc1cccc(-c2n[nH]nc2C2=CC(=O)C[C@H](c3ccc(F)cc3)C2)c1 | inactive | – |
| CCOc1ccccc1Nc1ccc2cc(S(=O)(=O)N3CCCCC3)ccc2n1 | inconclusive: 23.1 µM [cytotoxic, single point] | – |
| Cc1cc[n+](CC(=O)c2ccc(NC(=O)c3ccccc3)cc2)cc1 | inconclusive: 29.1 µM [cytotoxic, partial curve, poor fit] | – |
| Cc1cc(C)n(-c2nc3ccccc3c(=O)n2OCC(=O)OCc2ccccc2)n1 | active: 23.1 µM | – |
| COc1ccc(S(=O)(=O)N2c3cc(C)ccc3OCC2C(C)(C)C)cc1 (stereo not drawn) | active: 5.8 µM | – |

| SMILES | Potency | activity change, negative = cytotoxic |
| --- | --- | --- |
| COc1ccc(CCC(=O)NCc2ccc3c(c2)CCN3C(=O)c2cccc(C)c2)cc1 | inconclusive: 32.6 µM [cytotoxic, single point] | – |
| COc1ccc(N2CCN(C(CNC(=O)COc3ccccc3)c3ccco3)CC2)cc1 (stereo not drawn) | inconclusive: 29.1 µM [cytotoxic, single point] | – |
| O=C(Nc1ccc(F)cc1F)C1CCCN1S(=O)(=O)c1cccc2nsnc12 (stereo not drawn) | inconclusive: 29.1 µM [rising, single point] | – |
| CCOC1(OCC)C(c2ccc(Cl)cc2)C(C#N)(C#N)C1(OCC)OCC (stereo not drawn) | inconclusive: 29.1 µM [cytotoxic, single point] | – |
| CC(=O)NC(c1cccc(F)c1)c1nc(-c2cc3ccccc3o2)cs1 (stereo not drawn) | inconclusive: 29.1 µM [cytotoxic, single point] | – |
| O=C1CC(c2ccccc2)=Nc2ccc(Br)cc2N1 | inconclusive: 0.517 µM [cytotoxic, full curve, poor fit] | – |
| CCOC(=O)N/N=C/c1cn(CCCOc2ccccc2)c2ccccc12 | inactive | – |
| CC1=NN(C(=O)c2ccc(C)cc2)C(O)(C(F)(F)OC(F)(F)F)C1 (stereo not drawn) | inconclusive: 1.16 µM [rising, partial curve, poor fit] | – |
| CCN(CC)C(=O)C1CCCc2c1[nH]c1ccc(Cl)cc21 (stereo not drawn) | active: 6.51 µM | – |
| Cc1ccnc(NC(=O)c2oc3ccccc3c2C)c1 | inconclusive: 29.1 µM [cytotoxic, single point] | – |
| Cn1c(=O)c2ccccc2n2c(=S)[nH]nc12 | inactive | – |
| Cc1ccc(S(=O)(=O)N2CCN(C(=O)COC(=O)c3cc([N+](=O)[O-])ccc3NCCO)CC2)c(C)c1 | inconclusive: 20.6 µM [cytotoxic, single point] | – |
| FC(F)(F)c1cnc(-n2cc[nH]c2=S)c(Cl)c1 | inactive | – |
| COc1ccc(/C=N/NC(=S)Nc2cc(S(=O)(=O)N3CCOCC3)ccc2N2CCOCC2)cc1O | inconclusive: 16.4 µM [cytotoxic, single point] | – |
| CC1(C)C[C@@H]2C[C@@](C)(CN2C(=O)c2cc(COc3cccc(C(F)(F)F)c3)on2)C1 | inconclusive: 29.1 µM [cytotoxic, single point] | – |
| CCc1cc2c(=O)c(-c3ccc4c(c3)OCCO4)coc2c(CN2CCCCC2C)c1O (stereo not drawn) | inconclusive: 16.4 µM [cytotoxic, partial curve, poor fit] | – |
| Cc1ccc(C(=O)N2c3ccccc3Sc3ccccc32)cc1 | inconclusive: 29.1 µM [cytotoxic, single point] | – |
| CCCC(=O)N1CCC1(C)C(=O)NS(=O)(=O)c1cccc(C)c1 (stereo not drawn) | inactive | – |
| COCCCNC(=O)C1CCCN(S(C)(=O)=O)C1 (stereo not drawn) | inconclusive: 29.1 µM [rising, single point] | – |
| COC(=O)CN(C)C(=O)CC1C(=O)NCCN1CC(C)(C)C (stereo not drawn) | inconclusive: 2.91 µM [rising, partial curve, poor fit] | – |
| CCc1cc2c(Sc3nc4ccccc4s3)ncnc2s1 | active: 11.6 µM | – |
| CCN(CC)CCCN(C(C)=O)c1nc(-c2cc(OC)ccc2OC)cs1 | inconclusive: 25.9 µM [cytotoxic, single point] | – |
| Cc1ccc(C)c(CN2C(=O)C(O)(c3c[nH]c4ccccc34)c3ccccc32)c1 (stereo not drawn) | inconclusive: 29.1 µM [cytotoxic, single point] | – |

18 of these compounds in another layout.
SMILES | Potency | activity change, negative = cytotoxic
O=C1CC(c2ccccc2)=Nc2ccc(Br)cc2N1 | inconclusive: 0.517 µM [cytotoxic, full curve, poor fit] | –
CCOC(=O)N/N=C/c1cn(CCCOc2ccccc2)c2ccccc12 | inactive | –
CC1=NN(C(=O)c2ccc(C)cc2)C(O)(C(F)(F)OC(F)(F)F)C1 (stereo not drawn) | inconclusive: 1.16 µM [rising, partial curve, poor fit] | –
CCN(CC)C(=O)C1CCCc2c1[nH]c1ccc(Cl)cc21 (stereo not drawn) | active: 6.51 µM | –
Cc1ccnc(NC(=O)c2oc3ccccc3c2C)c1 | inconclusive: 29.1 µM [cytotoxic, single point] | –
Cn1c(=O)c2ccccc2n2c(=S)[nH]nc12 | inactive | –
Cc1ccc(S(=O)(=O)N2CCN(C(=O)COC(=O)c3cc([N+](=O)[O-])ccc3NCCO)CC2)c(C)c1 | inconclusive: 20.6 µM [cytotoxic, single point] | –
FC(F)(F)c1cnc(-n2cc[nH]c2=S)c(Cl)c1 | inactive | –
COc1ccc(/C=N/NC(=S)Nc2cc(S(=O)(=O)N3CCOCC3)ccc2N2CCOCC2)cc1O | inconclusive: 16.4 µM [cytotoxic, single point] | –
CC1(C)C[C@@H]2C[C@@](C)(CN2C(=O)c2cc(COc3cccc(C(F)(F)F)c3)on2)C1 | inconclusive: 29.1 µM [cytotoxic, single point] | –
CCc1cc2c(=O)c(-c3ccc4c(c3)OCCO4)coc2c(CN2CCCCC2C)c1O (stereo not drawn) | inconclusive: 16.4 µM [cytotoxic, partial curve, poor fit] | –
Cc1ccc(C(=O)N2c3ccccc3Sc3ccccc32)cc1 | inconclusive: 29.1 µM [cytotoxic, single point] | –
CCCC(=O)N1CCC1(C)C(=O)NS(=O)(=O)c1cccc(C)c1 (stereo not drawn) | inactive | –
COCCCNC(=O)C1CCCN(S(C)(=O)=O)C1 (stereo not drawn) | inconclusive: 29.1 µM [rising, single point] | –
COC(=O)CN(C)C(=O)CC1C(=O)NCCN1CC(C)(C)C (stereo not drawn) | inconclusive: 2.91 µM [rising, partial curve, poor fit] | –
CCc1cc2c(Sc3nc4ccccc4s3)ncnc2s1 | active: 11.6 µM | –
CCN(CC)CCCN(C(C)=O)c1nc(-c2cc(OC)ccc2OC)cs1 | inconclusive: 25.9 µM [cytotoxic, single point] | –
Cc1ccc(C)c(CN2C(=O)C(O)(c3c[nH]c4ccccc34)c3ccccc32)c1 (stereo not drawn) | inconclusive: 29.1 µM [cytotoxic, single point] | –

(listing goes on)

| SMILES | Potency | activity change, negative = cytotoxic |
| --- | --- | --- |
| COc1cccc(N2CCN(C(=O)CCCCCNc3nc(=S)[nH]c4ccccc34)CC2)c1 | inactive | – |
| NS(=O)(=O)c1ccc(NC2=CC(=O)C(=O)c3ccccc32)cc1 | inconclusive: 18.4 µM [cytotoxic, partial curve, poor fit] | – |
| COc1ccc(NC(=O)c2cnc3ccccn3c2=O)c(OC)c1 | inconclusive: 14.6 µM [rising, partial curve, poor fit] | – |
| CCc1cccc(NC(=O)c2coc(=O)c3ccccc23)c1 | inconclusive: 32.6 µM [cytotoxic, single point] | – |
| Cc1cc(NC(=O)CSc2nnnn2C)n(-c2ccccc2)n1 | inactive | – |
| CN(C(=O)C(C)(C)C)c1ccc(OCC(=O)N2CCc3ccccc3C2)cc1 | inconclusive: 4.61 µM [cytotoxic, full curve] | – |
| O=C(CCN1C(=O)c2cccc3cccc(c23)C1=O)NCc1cccnc1 | inconclusive: 29.1 µM [rising, single point] | – |
| Cc1nc2ccccc2c2c1CC(C(C)(Cl)Br)O2 (stereo not drawn) | inconclusive: 7.31 µM [cytotoxic, partial curve] | – |
| COc1ccc(CCNc2cc(-c3ccccc3)nc3ncnn23)cc1 | inconclusive: 18.4 µM [cytotoxic, single point] | – |
| O=C(COc1ccc(Cl)cc1Cl)c1ccc[nH]1 | inconclusive: 18.4 µM [cytotoxic, single point] | – |
| O=Cc1cc(N=Nc2ccccc2Cl)ccc1O | inconclusive: 20.6 µM [cytotoxic, single point] | – |
| COCCN1Cc2cccc(C(=O)NCc3cccs3)c2C1=O | – | inconclusive: 12.2% |
| Cc1ccccc1OCC(=O)N(Cc1ccc(C(C)C)cc1)C1CCS(=O)(=O)C1 (stereo not drawn) | inactive | – |
| COc1ccc(C(=S)N2CCN(c3cccc(Cl)c3)CC2)c(OC)c1 | active: 6.51 µM | – |
| CCOc1ccc(-c2csc(/C(C#N)=C\c3ccc(O)c([N+](=O)[O-])c3)n2)cc1 | active: 20.6 µM | – |
| Cc1ccccc1NC1=C/C(=N\S(=O)(=O)c2cccs2)c2ccccc2C1=O | inconclusive: 11.6 µM [cytotoxic, partial curve, poor fit] | – |
| Cc1ccc(NC(=S)NC2CCCC2)c(C)c1 | inactive | – |
| CCn1c2ccccc2c2cc(NC(=O)CNCc3ccccc3OC)ccc21 | inconclusive: 7.31 µM [cytotoxic, partial curve, poor fit] | – |
| Cc1ccc(N2C(=O)C(CC(=O)Nc3ccccc3)N(CCC3=CCCCC3)C2=O)cc1 (stereo not drawn) | inactive | – |
| CCOC(=O)c1c(S(=O)(=O)N2CCCC(C)C2)c(C)n(C)c1C (stereo not drawn) | inactive | – |
| O=C(NCc1ccc(F)cc1)c1cnc(Cl)c(Cl)c1 | inactive | – |
| CCOc1ccccc1N(CC(=O)NC1CCCCC1)C(=O)c1nsc(Cl)c1Cl | inconclusive: 29.1 µM [cytotoxic, single point] | – |
